In the supplement of paper PMC10849652:
The other results are listed elsewhere or left out.

Amino acid sequences for entries named in this document (tags omitted). A change or cut given only in a name is not applied to a line headed by its entry.
UniProt Q96G23: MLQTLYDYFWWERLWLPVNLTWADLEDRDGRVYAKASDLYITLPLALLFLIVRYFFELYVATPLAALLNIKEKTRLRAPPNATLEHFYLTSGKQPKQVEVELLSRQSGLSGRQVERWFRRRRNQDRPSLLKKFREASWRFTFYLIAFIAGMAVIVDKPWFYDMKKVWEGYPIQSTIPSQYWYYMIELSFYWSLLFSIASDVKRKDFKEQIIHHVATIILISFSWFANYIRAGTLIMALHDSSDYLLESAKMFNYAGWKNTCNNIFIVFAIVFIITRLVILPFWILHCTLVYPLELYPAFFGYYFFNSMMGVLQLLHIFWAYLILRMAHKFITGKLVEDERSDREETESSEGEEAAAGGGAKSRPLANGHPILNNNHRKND
UniProt Q9UPN4: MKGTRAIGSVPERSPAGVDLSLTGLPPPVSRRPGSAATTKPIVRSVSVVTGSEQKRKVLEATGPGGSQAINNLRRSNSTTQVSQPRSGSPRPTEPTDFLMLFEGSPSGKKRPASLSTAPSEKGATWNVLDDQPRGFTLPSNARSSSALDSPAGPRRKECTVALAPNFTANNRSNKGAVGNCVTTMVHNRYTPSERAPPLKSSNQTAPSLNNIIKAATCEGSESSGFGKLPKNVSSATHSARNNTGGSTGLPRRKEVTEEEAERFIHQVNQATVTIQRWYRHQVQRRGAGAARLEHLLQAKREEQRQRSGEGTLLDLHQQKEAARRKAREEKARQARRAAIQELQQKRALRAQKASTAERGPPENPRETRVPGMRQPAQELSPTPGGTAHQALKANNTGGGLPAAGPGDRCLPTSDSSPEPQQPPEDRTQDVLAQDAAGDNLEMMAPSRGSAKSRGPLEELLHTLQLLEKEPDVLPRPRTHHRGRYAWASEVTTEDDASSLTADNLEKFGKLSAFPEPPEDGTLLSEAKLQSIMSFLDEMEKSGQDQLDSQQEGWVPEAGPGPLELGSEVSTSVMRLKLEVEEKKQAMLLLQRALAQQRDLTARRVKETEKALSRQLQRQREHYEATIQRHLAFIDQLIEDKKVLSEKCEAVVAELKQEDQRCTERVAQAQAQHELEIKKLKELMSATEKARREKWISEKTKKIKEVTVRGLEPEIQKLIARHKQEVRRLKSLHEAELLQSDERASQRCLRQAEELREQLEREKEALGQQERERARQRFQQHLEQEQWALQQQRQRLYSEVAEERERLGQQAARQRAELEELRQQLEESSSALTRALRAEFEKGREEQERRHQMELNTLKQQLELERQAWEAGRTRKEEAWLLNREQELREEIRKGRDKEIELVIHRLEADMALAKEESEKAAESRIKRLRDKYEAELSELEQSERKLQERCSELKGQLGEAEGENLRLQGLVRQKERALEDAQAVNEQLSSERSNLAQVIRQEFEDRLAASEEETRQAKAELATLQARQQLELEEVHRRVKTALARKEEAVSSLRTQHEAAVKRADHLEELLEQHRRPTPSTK
UniProt P35790, whole entry, looked up: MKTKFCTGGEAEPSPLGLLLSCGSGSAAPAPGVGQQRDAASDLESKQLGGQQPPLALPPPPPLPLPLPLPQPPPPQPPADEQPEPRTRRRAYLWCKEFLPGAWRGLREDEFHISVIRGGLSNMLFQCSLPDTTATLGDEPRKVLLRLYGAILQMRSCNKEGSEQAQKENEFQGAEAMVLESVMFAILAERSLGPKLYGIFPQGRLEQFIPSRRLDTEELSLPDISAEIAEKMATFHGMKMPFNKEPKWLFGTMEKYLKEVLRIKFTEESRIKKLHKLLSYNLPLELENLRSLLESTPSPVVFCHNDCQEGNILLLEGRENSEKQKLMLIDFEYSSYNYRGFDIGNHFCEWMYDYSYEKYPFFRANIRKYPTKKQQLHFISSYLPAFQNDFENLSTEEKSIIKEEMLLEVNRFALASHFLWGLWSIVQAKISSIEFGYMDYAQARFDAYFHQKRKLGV
UniProt Q8IWX8: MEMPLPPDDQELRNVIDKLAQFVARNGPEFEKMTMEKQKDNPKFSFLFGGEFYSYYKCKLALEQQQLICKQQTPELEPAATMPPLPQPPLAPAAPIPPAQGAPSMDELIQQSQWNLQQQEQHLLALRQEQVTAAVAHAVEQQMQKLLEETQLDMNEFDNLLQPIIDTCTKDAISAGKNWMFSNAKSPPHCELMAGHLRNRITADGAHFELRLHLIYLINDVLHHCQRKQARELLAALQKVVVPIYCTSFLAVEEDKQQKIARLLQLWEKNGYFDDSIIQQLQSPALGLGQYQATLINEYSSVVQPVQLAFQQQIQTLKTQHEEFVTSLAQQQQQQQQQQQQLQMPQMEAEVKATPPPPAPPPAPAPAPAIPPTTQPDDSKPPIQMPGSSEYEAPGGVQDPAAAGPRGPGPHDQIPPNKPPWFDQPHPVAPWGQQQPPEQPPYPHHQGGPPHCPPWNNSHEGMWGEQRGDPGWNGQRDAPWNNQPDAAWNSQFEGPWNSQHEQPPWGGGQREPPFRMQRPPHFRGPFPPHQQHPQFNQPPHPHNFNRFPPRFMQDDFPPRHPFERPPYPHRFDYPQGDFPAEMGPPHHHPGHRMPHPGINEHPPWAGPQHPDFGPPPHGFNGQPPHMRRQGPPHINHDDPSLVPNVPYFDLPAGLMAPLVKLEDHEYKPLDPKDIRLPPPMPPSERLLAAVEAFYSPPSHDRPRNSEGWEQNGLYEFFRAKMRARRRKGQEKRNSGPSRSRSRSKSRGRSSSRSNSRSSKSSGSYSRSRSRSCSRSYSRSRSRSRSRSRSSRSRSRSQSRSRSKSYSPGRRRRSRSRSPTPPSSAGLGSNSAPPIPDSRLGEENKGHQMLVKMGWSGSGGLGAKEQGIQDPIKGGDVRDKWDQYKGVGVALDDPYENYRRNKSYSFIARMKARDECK
UniProt Q9NYV4, whole entry, looked up: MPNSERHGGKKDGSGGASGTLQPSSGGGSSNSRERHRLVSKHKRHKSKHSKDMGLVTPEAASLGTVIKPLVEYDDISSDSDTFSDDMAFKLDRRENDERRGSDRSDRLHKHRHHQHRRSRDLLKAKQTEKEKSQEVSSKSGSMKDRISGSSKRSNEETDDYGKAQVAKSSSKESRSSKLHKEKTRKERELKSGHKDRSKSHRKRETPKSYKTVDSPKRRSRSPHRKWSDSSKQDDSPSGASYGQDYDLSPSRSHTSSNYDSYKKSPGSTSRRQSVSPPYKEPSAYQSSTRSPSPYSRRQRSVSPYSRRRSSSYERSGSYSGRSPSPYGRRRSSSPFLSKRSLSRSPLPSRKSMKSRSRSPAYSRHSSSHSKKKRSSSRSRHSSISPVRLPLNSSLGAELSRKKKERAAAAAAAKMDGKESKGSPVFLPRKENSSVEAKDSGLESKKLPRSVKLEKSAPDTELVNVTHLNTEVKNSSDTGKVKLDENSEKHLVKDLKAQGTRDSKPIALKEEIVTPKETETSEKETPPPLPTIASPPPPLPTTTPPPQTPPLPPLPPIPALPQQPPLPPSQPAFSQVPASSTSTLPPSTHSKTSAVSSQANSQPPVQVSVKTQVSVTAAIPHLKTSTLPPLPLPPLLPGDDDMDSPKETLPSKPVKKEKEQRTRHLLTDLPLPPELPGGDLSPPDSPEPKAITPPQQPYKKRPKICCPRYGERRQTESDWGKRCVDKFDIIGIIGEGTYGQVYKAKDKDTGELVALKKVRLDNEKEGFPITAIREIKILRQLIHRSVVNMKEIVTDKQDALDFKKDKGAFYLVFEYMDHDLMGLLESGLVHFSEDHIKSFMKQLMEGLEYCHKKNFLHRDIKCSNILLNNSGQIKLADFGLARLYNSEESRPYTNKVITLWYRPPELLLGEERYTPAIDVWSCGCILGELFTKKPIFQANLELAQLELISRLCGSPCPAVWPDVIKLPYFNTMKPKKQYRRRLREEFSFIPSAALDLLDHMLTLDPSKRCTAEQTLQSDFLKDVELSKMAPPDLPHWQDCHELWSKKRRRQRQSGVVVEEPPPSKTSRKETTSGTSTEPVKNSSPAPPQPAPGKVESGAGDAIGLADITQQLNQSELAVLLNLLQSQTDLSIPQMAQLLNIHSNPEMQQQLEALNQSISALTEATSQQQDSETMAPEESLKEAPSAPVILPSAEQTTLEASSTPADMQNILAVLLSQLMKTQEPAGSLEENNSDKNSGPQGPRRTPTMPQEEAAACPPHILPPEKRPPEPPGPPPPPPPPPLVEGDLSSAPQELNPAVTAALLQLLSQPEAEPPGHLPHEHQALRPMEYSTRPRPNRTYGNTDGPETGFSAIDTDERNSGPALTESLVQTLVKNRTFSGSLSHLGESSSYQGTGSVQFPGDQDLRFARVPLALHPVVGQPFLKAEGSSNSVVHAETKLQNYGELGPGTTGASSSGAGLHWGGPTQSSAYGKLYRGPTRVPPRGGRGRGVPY
UniProt P46527, whole entry, looked up: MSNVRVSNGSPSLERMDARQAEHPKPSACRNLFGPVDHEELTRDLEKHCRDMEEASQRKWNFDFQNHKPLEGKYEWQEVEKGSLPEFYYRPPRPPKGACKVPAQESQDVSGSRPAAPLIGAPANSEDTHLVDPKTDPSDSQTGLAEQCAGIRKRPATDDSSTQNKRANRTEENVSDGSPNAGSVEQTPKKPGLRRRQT
UniProt O00748: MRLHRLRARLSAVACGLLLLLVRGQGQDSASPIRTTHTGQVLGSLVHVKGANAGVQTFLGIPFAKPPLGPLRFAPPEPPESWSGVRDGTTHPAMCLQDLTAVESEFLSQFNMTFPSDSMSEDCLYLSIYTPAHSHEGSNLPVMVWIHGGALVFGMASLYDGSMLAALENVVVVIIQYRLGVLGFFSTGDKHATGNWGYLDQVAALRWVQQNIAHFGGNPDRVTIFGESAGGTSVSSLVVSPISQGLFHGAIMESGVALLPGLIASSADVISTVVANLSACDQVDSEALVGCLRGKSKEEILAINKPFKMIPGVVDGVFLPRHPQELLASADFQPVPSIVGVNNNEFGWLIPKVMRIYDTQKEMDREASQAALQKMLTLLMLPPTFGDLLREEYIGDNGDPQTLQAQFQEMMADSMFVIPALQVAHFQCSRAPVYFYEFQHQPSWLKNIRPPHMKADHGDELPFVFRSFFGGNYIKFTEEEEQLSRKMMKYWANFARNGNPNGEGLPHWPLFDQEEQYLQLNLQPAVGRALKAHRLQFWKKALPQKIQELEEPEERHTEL
UniProt Q00535, whole entry, looked up: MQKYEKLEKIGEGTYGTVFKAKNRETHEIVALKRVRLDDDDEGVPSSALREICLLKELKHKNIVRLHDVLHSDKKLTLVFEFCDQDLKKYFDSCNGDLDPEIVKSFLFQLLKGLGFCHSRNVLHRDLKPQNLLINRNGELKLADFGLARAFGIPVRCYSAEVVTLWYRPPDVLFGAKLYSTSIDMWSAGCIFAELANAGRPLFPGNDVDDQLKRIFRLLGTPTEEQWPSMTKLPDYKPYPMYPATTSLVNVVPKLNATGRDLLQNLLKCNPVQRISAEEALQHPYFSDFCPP

Assays:
Assay in all cases: log2 fold change, soluble protein after heating vs DMSO (PISA); higher = thermal stabilisation; K562 cells, 10 uM, 30 min; active = over 0.2 and 3.5 SD of the protein, either way, in both replicates (recomputed)
[1] = compound: CS(=O)(=O)c1ccc(-c2cnc(N)c(C(=O)Nc3ccccc3)n2)cc1
In short: (§1)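 For each measurement, 10 μM compound was applied for 30 min to K562 cells at 2×10^6 cells/mL. Aliquots were heated for 3 min across 48°C-58°C, pooled, and extracted in PBS with 0.5% NP-40 at 4°C; the supernatant after 21,000xg for 90 min was soluble protein. This was quantified by TMTpro 16plex LC-MS/MS with channel sums equalised, and thermal stability was reported relative to control samples from duplicates, on a log2 fold-change scale.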

[2] = compound: C[C@@H](Oc1cc(-c2cnn(C3CCNCC3)c2)cnc1N)c1c(Cl)ccc(F)c1Cl [crizotinib]
In short: as §1

[3] = compound: C[C@@H]1COCCN1C2=NC(=NC(=C2)C3(CC3)S(=O)(=O)C)C4=C5C=CNC5=CC=C4
In short: as §1

[4] = compound: C[C@H](C1=CC=C(C=C1)C(=O)NC2=C3C=CNC3=NC=C2)N
In short: as §1

[5] = compound: Cc1cc(Nc2cc(CN3CCOCC3)c3nc(C)c(Cc4ccc(Cl)cc4F)n3n2)n[nH]1 [gandotinib]
In short: as §1

[6] = compound: Cc1cc(SCc2sc(-c3ccc(C(F)(F)F)cc3)nc2C)ccc1OCC(=O)O
In short: as §1

[7] = compound: Cc1ccc(-n2nc(C(C)(C)C)cc2NC(=O)Nc2ccc(OCCN3CCOCC3)c3ccccc23)cc1 [doramapimod]
In short: as §1

[8] = compound: Cc1ccc(C(=O)N(CCCN)[C@@H](c2nc3cc(Cl)ccc3c(=O)n2Cc2ccccc2)C(C)C)cc1 [ispinesib]
In short: as §1

[9] = compound: Cc1ccc(NC(=O)c2ccc(CN3CC[C@H](N(C)C)C3)c(C(F)(F)F)c2)cc1Nc1nccc(-c2cncnc2)n1 [bafetinib]
In short: as §1

[10] = compound: Cc1cccc(CC(=O)N2CCc3c2ccc(-c2cn(C)c4ncnc(N)c24)c3F)n1
In short: as §1

[11] = compound: Cc1cn(-c2cc(NC(=O)c3ccc(C)c(Nc4nccc(-c5cccnc5)n4)c3)cc(C(F)(F)F)c2)cn1 [nilotinib]
In short: as §1

[12] = compound: Cc1nc(Nc2n[nH]c3c2CN(C(=O)N[C@H](CN(C)C)c2ccccc2)C3(C)C)c2sccc2n1
In short: as §1

[13] = compound: Cc1nc(Nc2ncc(C(=O)Nc3c(C)cccc3Cl)s2)cc(N2CCN(CCO)CC2)n1 [dasatinib]
In short: as §1

[14] = compound: Cc1ncc(-c2ccnc(Nc3ccc(S(C)(=O)=O)cc3)n2)n1C(C)C
In short: as §1

[15] = compound: Cn1cc(-c2ccc3c(c2)CCN3C(=O)Cc2cccc(C(F)(F)F)c2)c2c(N)ncnc21
In short: as §1

[16] = compound: Cn1cc(-c2ccc3nnc(C(F)(F)c4ccc5ncccc5c4)n3n2)cn1
In short: as §1

[17] = compound: Cn1cncc1[C@@](N)(c1ccc(Cl)cc1)c1ccc2c(c1)c(-c1cccc(Cl)c1)cc(=O)n2C [tipifarnib]
In short: as §1

[18] = compound: FC(F)(F)c1ccc(/C=C/c2nc(COc3ccc(CCCCn4ccnn4)cc3)co2)cc1 [mubritinib]
In short: as §1

[19] = compound: C[C@H](Nc1ncnc2nc[nH]c12)c1cc2cccc(Cl)c2c(=O)n1-c1ccccc1 [duvelisib]
In short: as §1

[20] = compound: Cc1cc(Nc2cc(N3CCN(C)CC3)nc(Sc3ccc(NC(=O)C4CC4)cc3)n2)n[nH]1 [tozasertib]
In short: as §1

| Target | log2 fold change [1] | log2 fold change [2] | log2 fold change [3] | log2 fold change [4] | log2 fold change [5] | log2 fold change [6] | log2 fold change [7] | log2 fold change [8] | log2 fold change [9] | log2 fold change [10] | log2 fold change [11] | log2 fold change [12] | log2 fold change [13] | log2 fold change [14] | log2 fold change [15] | log2 fold change [16] | log2 fold change [17] | log2 fold change [18] | log2 fold change [19] | log2 fold change [20] |
| --- | --- | --- | --- | --- | --- | --- | --- | --- | --- | --- | --- | --- | --- | --- | --- | --- | --- | --- | --- | --- |
| CERS2 (UniProt Q96G23) | inactive: -0.027 | active: -0.294 | inactive: -0.054 | inactive: -0.034 | inactive: -0.203 | inactive: -0.032 | inactive: -0.04 | active: -0.466 | inactive: -0.177 | inactive: 0.064 | inactive: -0.128 | inactive: -0.015 | inactive: -0.113 | inactive: 0.028 | inactive: -0.034 | inactive: 0.028 | inactive: -0.074 | inactive: -0.03 | – | – |
| CEP131 (UniProt Q9UPN4) | inactive: -0.17 | inactive: -0.327 | inactive: -0.071 | inactive: 0.087 | inactive: 0.014 | inactive: 0.104 | inactive: 0.046 | – | – | inactive: -0.03 | – | – | inactive: -0.017 | – | inactive: -0.15 | – | inactive: -0.038 | inactive: 0.079 | inactive: -0.011 | inactive: 0.073 |
| CHKA (UniProt P35790) | inactive: -0.022 | inactive: 0.075 | inactive: -0.034 | inactive: 0.046 | inactive: 0.009 | inactive: -0.012 | inactive: -0.011 | inactive: 0.048 | inactive: 0.123 | inactive: -0.023 | inactive: 0.178 | inactive: 0.149 | inactive: 0.07 | inactive: 0.088 | inactive: -0.02 | inactive: -0.081 | inactive: -0.026 | inactive: -0.024 | – | – |
| CHERP (UniProt Q8IWX8) | inactive: -0.087 | inactive: -0.108 | inactive: 0.109 | inactive: 0.009 | inactive: -0.047 | inactive: 0.138 | inactive: 0.01 | inactive: -0.004 | inactive: 0.057 | inactive: 0.092 | inactive: -0.13 | inactive: -0.353 | inactive: -0.086 | inactive: 0.011 | inactive: 0.011 | inactive: 0.025 | inactive: 0.005 | inactive: -0.07 | – | – |
| CDK12 (UniProt Q9NYV4) | inactive: -0.056 | inactive: -0.054 | inactive: -0.362 | inactive: 0.376 | active: -1.11 | inactive: 0.051 | inactive: 0.299 | inactive: 0 | inactive: 0.298 | inactive: 0.079 | inactive: 0.136 | active: -0.631 | inactive: 0.23 | inactive: -0.301 | inactive: -0.484 | inactive: -0.123 | inactive: 0.156 | inactive: -0.043 | – | – |
| CDKN1B (UniProt P46527) | inactive: -0.017 | inactive: -0.018 | inactive: -0.295 | inactive: -0.065 | inactive: 0.077 | inactive: -0.06 | inactive: -0.071 | inactive: -0.01 | inactive: -0.001 | inactive: -0.05 | inactive: 0.013 | inactive: -0.097 | inactive: 0.004 | inactive: 0.149 | inactive: 0.108 | inactive: 0.04 | inactive: 0.009 | inactive: 0.114 | – | – |
| CES2 isoform 4 (UniProt O00748) | inactive: 0.162 | inactive: 0.154 | inactive: 0.03 | inactive: -0.079 | inactive: 0.048 | inactive: -0.188 | inactive: 0.144 | inactive: -0.047 | inactive: -0.006 | inactive: -0.104 | inactive: 0.274 | inactive: -0.045 | inactive: 0.119 | inactive: -0.036 | active: 0.489 | inactive: 0.166 | inactive: 0.28 | inactive: 0.111 | – | – |
| CDK5 (UniProt Q00535) | inactive: 0.019 | inactive: -0.076 | inactive: 0.037 | inactive: -0.022 | inactive: -0.003 | inactive: 0.008 | inactive: 0.088 | inactive: -0.033 | inactive: -0.091 | inactive: 0.035 | inactive: -0.055 | inactive: -0.142 | inactive: -0.078 | inactive: -0.034 | inactive: -0.033 | inactive: -0.031 | inactive: -0.054 | inactive: -0.103 | – | – |
| CHCHD1 (UniProt Q96BP2) | inactive: -0.115 | active: -0.54 | inactive: -0.203 | inactive: -0.067 | inactive: -0.085 | inactive: 0.036 | inactive: -0.087 | inactive: 0.06 | inactive: -0.084 | inactive: 0.081 | inactive: -0.007 | inactive: 0.02 | inactive: -0.057 | inactive: -0.031 | inactive: -0.153 | inactive: 0.105 | inactive: 0.077 | inactive: 0.104 | – | – |

Rewritten with bars between the fields: entries from further up
Target | log2 fold change [1] | log2 fold change [2] | log2 fold change [3] | log2 fold change [4] | log2 fold change [5] | log2 fold change [6] | log2 fold change [7] | log2 fold change [8] | log2 fold change [9] | log2 fold change [10] | log2 fold change [11] | log2 fold change [12] | log2 fold change [13] | log2 fold change [14] | log2 fold change [15] | log2 fold change [16] | log2 fold change [17] | log2 fold change [18] | log2 fold change [19] | log2 fold change [20]
CERS2 (UniProt Q96G23) | inactive: -0.027 | active: -0.294 | inactive: -0.054 | inactive: -0.034 | inactive: -0.203 | inactive: -0.032 | inactive: -0.04 | active: -0.466 | inactive: -0.177 | inactive: 0.064 | inactive: -0.128 | inactive: -0.015 | inactive: -0.113 | inactive: 0.028 | inactive: -0.034 | inactive: 0.028 | inactive: -0.074 | inactive: -0.03 | – | –
CEP131 (UniProt Q9UPN4) | inactive: -0.17 | inactive: -0.327 | inactive: -0.071 | inactive: 0.087 | inactive: 0.014 | inactive: 0.104 | inactive: 0.046 | – | – | inactive: -0.03 | – | – | inactive: -0.017 | – | inactive: -0.15 | – | inactive: -0.038 | inactive: 0.079 | inactive: -0.011 | inactive: 0.073
